Source: patent US20160067211A1, “PHARMACEUTICAL COMPOSITION” (Eberhard Karls Universitaet Tuebingen Medizinische Fakultaet, priority 2013, published 2016)
Some results were stated once for a whole list of compounds, not compound by compound.

Tested on: human HDAC enzymes from nuclear extract of HeLa cells
Experiment: HDAC inhibitor screening assay (HeLa nuclear extract)
Assay type: biochemical
Conditions: 100 μM
Experimental: FIG. 2: In silico docking analysis with 6-PN and 8-PN illustrates the inhibitory potential on human-derived HDACs of class I and II. (A) Results of the in silico docking analysis of 6-PN and 8-PN with crystal structures of HDAC2 (class I) and HDAC4 (class II). […] Both molecules are predicted to interact with the zinc ion as well as other residues of the catalytic center. Docking analyses of 6-PN and 8-PN in the individual HDAC binding pockets were performed using GOLD (version 4.1.2) and MOE (version 2009.10). (B) Overall HDAC inhibition in cellular extracts of the human cell line HeLa by increasing concentrations of 6-PN and 8-PN (5 μM, 10 μM, 20 μM, 50 μM and 100 μM). As reference inhibitor 100 μM SAHA was used. Every concentration was tested three times in triplicates. Shown are the mean±SD. (C) Specific fluometric profiling assay using recombinant human HDACs of classes I, II and IV. Specific inhibition values were generated for the treatment with 100 μM 6-PN and 8-PN. TSA was used as reference inhibitor (HDAC1, 2, 3, 6, 10, 11: 10 nM; HDAC4, 8, 9: 1 μM; HDAC5, 7:10 μM). The inhibition vales for every HDAC were yielded by one experiment performed in duplicates Shown are the mean±S.A. […]

CC(C)=CCc1c(O)cc(O)c2c1OC(c1ccc(O)cc1)CC2=O (stereo not shown) [8-PN, 5,7-Dihydroxy-2-(4-hydroxy-phenyl)-8-(3-methyl-but-2-enyl)-chroman-4-one]
HDAC inhibition rate: ≥ 50%
